Source: patent US20080287430A1, “Furan Compounds Useful As Ep1 Receptor Antagonists” (priority 2005, published 2008)
Some results were stated once for a whole list of compounds, not compound by compound.

Molecular target: T1, human EP3 receptor (Homo sapiens, UniProt P43115)
T1 construct: expressed in transfected cells; host or cells: CHO-K1
T1 sequence (P43115 1-390): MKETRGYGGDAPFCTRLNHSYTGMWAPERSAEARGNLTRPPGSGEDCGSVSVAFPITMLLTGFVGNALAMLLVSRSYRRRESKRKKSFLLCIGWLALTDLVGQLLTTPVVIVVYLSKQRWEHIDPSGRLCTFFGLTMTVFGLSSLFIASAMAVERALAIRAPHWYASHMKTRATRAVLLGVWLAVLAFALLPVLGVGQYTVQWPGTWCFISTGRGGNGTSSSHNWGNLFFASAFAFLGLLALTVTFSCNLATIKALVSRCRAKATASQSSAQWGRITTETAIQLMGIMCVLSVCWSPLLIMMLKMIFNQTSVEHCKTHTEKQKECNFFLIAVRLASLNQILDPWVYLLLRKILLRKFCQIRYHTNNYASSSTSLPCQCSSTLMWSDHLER
Test: human EP3 calcium mobilisation assay
Assay type: cell-based
Details: free bases or sodium salts; for functional pKi value: human EP3, PGE2-induced calcium mobilisation in CHO-K1 cells, averages of a number of experiments; for activity in a functional assay: human EP3 calcium mobilisation assay

SMILES	functional pKi value	activity in a functional assay
CC(C)COc1ccc(Cl)cc1Cc1ccc(C(=O)NCc2ccc3c(c2)OCO3)o1 [Example 39, N-(1,3-Benzodioxol-5-ylmethyl)-5-({5-chloro-2-[(2-methylpropyl)oxy]phenyl}methyl)-2-furancarboxamide]	≤ 6.5	–
COc1ccc(CNC(=O)c2ccc(Cc3cc(Cl)ccc3OCC(C)C)o2)cc1 [Example 40, 5-({5-Chloro-2-[(2-methylpropyl)oxy]phenyl}methyl)-N-{[4-(methyloxy)phenyl]methyl}-2-furancarboxamide]	≤ 6.5	–
CC(C)COc1ccc(Cl)cc1Cc1ccc(C(=O)NCc2ccc(Cl)cc2)o1 [Example 41, 5-({5-Chloro-2-[(2-methylpropyl)oxy]phenyl}methyl)-N-[(4-chlorophenyl)methyl]-2-furancarboxamide]	≤ 6.5	–
CC(C)COc1ccc(Cl)cc1Cc1ccc(C(=O)NCc2ccc(C#N)cc2)o1 [Example 42, 5-({5-Chloro-2-[(2-methylpropyl)oxy]phenyl}methyl)-N-[(4-cyanophenyl)methyl]-2-furancarboxamide]	≤ 6.5	–
CC(C)COc1ccc(Cl)cc1Cc1ccc(C(=O)NCc2c(F)cccc2F)o1 [Example 43, 5-({5-Chloro-2-[(2-methylpropyl)oxy]phenyl}methyl)-N-[(2,6-difluorophenyl)methyl]-2-furancarboxamide]	≤ 6.5	–
CC(C)COc1ccc(Cl)cc1Cc1ccc(C(=O)NCc2cccc(F)c2F)o1 [Example 44, 5-({5-Chloro-2-[(2-methylpropyl)oxy]phenyl}methyl)-N-[(2,3-difluorophenyl)methyl]-2-furancarboxamide]	≤ 6.5	–
CC(C)COc1ccc(Cl)cc1Cc1ccc(C(=O)NCc2ccc(-c3cccnc3)cc2)o1 [Example 45, 5-({5-Chloro-2-[(2-methylpropyl)oxy]phenyl}methyl)-N-{[4-(3-pyridinyl)phenyl]methyl}-2-furancarboxamide]	≤ 6.5	no activity
CC(C)COc1ccc(Cl)cc1Cc1ccc(C(=O)NCc2ccc(C(N)=O)cc2)o1 [Example 46, N-{[4-(Aminocarbonyl)-phenyl]methyl}-5-({5-chloro-2-[(2-methylpropyl)oxy]phenyl}methyl)-2-furancarboxamide]	≤ 6.5	–
CC(C)COc1ccc(Cl)cc1Cc1ccc(C(=O)NCc2cccc3ccccc23)o1 [Example 47, 5-({5-Chloro-2-[(2-methylpropyl)oxy]phenyl}methyl)-N-(1-naphthalenylmethyl)-2-furancarboxamide]	≤ 6.5	–
O=C(NCc1ccccc1)c1ccc(Cc2cc(Cl)ccc2OCc2ccccc2)o1 [Example 48, 5-({5-Chloro-2-[(phenylmethyl)oxy]phenyl}methyl)-N-(phenylmethyl)-2-furancarboxamide]	≤ 6.5	–
CC(C)NC(=O)c1ccc(Cc2cc(Cl)ccc2OCc2ccccc2)o1 [Example 49, 5-({5-Chloro-2-[(phenylmethyl)oxy]phenyl}methyl)-N-(1-methylethyl)-2-furancarboxamide]	≤ 6.5	–
CC(C)CNC(=O)c1ccc(Cc2cc(Cl)ccc2OCc2ccccc2)o1 [Example 50, 5-({5-Chloro-2-[(phenylmethyl)oxy]phenyl}methyl)-N-(2-methylpropyl)-2-furancarboxamide]	≤ 6.5	–
CC(C)(C)NC(=O)c1ccc(Cc2cc(Cl)ccc2OCc2ccccc2)o1 [Example 51, 5-({5-Chloro-2-[(phenylmethyl)oxy]phenyl}methyl)-N-(1,1-dimethylethyl)-2-furancarboxamide]	≤ 6.5	–
CC(C)(C)CNC(=O)c1ccc(Cc2cc(Cl)ccc2OCc2ccccc2)o1 [Example 52, 5-({5-Chloro-2-[(phenylmethyl)oxy]phenyl}methyl)-N-(2,2-dimethylpropyl)-2-furancarboxamide]	≤ 6.5	–
O=C(NCc1ccccn1)c1ccc(Cc2cc(Cl)ccc2OCc2ccccc2)o1 [Example 53, 5-({5-Chloro-2-[(phenylmethyl)oxy]phenyl}methyl)-N-(2-pyridinylmethyl)-2-furancarboxamide]	≤ 6.5	–
CN(C)c1ccc(CNC(=O)c2ccc(Cc3cc(Cl)ccc3OCc3ccccc3)o2)cc1 [Example 54, 5-({5-Chloro-2-[(phenylmethyl)oxy]phenyl}methyl)-N-{[4-(dimethylamino)phenyl]methyl}-2-furancarboxamide]	≤ 6.5	–
CC(C)COc1ccc(Cl)cc1Cc1ccc(C(=O)NC(C)C)o1 [Example 55, 5-({5-Chloro-2-[(2-methylpropyl)oxy]phenyl}methyl)-N-(1-methylethyl)-2-furancarboxamide]	≤ 6.5	no activity

SMILES	functional pKi value	activity in a functional assay
CC(C)COc1ccc(Cl)cc1Cc1ccc(C(=O)NC(C)(C)C)o1 [Example 56, 5-({5-Chloro-2-[(2-methylpropyl)oxy]-phenyl}methyl)-N-(1,1-dimethylethyl)-2-furancarboxamide]	≤ 6.5	–
CC(C)COc1ccc(Cl)cc1Cc1ccc(C(=O)NCc2ccccc2)o1 [Example 57, 5-({5-Chloro-2-[(2-methylpropyl)oxy]-phenyl}methyl)-N-(phenylmethyl)-2-furancarboxamide]	≤ 6.5	–
CC(C)COc1ccc(Cl)cc1Cc1ccc(C(=O)NCc2ccccn2)o1 [Example 58, 5-({5-Chloro-2-[(2-methylpropyl)oxy]-phenyl}methyl)-N-(2-pyridinylmethyl)-2-furancarboxamide]	≤ 6.5	–
CC(C)COc1ccc(Cl)cc1Cc1ccc(C(=O)n2cnc3ccccc32)o1 [Example 67, 1-{[5-({5-Chloro-2-[(2-methylpropyl)oxy]-phenyl}methyl)-2-furanyl]carbonyl}-1H-benzimidazole]	≤ 6.5	–
CC(C)COc1ccc(Cl)cc1Cc1ccc(C(N)=O)o1 [Example 68, 5-({5-Chloro-2-[(2-methylpropyl)oxy]-phenyl}methyl)-2-furancarboxamide]	≤ 6.5	–
O=C(Nc1ccccc1F)c1ccc(Cc2cc(Cl)ccc2OCc2ccccc2)o1 [Example 69, 5-({5-Chloro-2-[(phenylmethyl)oxy]-phenyl}methyl)-N-(2-fluorophenyl)-2-furancarboxamide]	≤ 6.5	no activity
O=C(Nc1ccccc1)c1ccc(Cc2cc(Cl)ccc2OCc2ccccc2)o1 [Example 70, 5-({5-Chloro-2-[(phenylmethyl)oxy]-phenyl}methyl)-N-phenyl-2-furancarboxamide]	≤ 6.5	no activity
Cc1cccc(C)c1NC(=O)c1ccc(Cc2cc(Cl)ccc2OCc2ccccc2)o1 [Example 71, 5-({5-Chloro-2-[(phenylmethyl)oxy]-phenyl}methyl)-N-(2,6-dimethylphenyl)-2-furancarboxamide]	≤ 6.5	–
O=C(Nc1ccccc1Cl)c1ccc(Cc2cc(Cl)ccc2OCc2ccccc2)o1 [Example 72, N-(2-chlorophenyl)-5-({5-chloro-2-[(phenylmethyl)oxy]-phenyl}methyl)-2-furancarboxamide]	≤ 6.5	no activity
Cc1ccccc1NC(=O)c1ccc(Cc2cc(Cl)ccc2OCc2ccccc2)o1 [Example 73, 5-({5-Chloro-2-[(phenylmethyl)oxy]-phenyl}methyl)-N-(2-methylphenyl)-2-furancarboxamide]	≤ 6.5	no activity
Cc1cccc(Cl)c1NC(=O)c1ccc(Cc2cc(Cl)ccc2OCc2ccccc2)o1 [Example 74, N-(2-Chloro-6-methylphenyl)-5-({5-chloro-2-[(phenylmethyl)oxy]-phenyl}methyl)-2-furancarboxamide]	≤ 6.5	no activity
O=C(Nc1ccccc1-c1ccccc1)c1ccc(Cc2cc(Cl)ccc2OCc2ccccc2)o1 [Example 75, N-2-biphenylyl-5-({5-chloro-2-[(phenylmethyl)oxy]-phenyl}methyl)-2-furancarboxamide]	≤ 6.5	–
O=C(Nc1ccccc1Br)c1ccc(Cc2cc(Cl)ccc2OCc2ccccc2)o1 [Example 76, N-(2-bromophenyl)-5-({5-chloro-2-[(phenylmethyl)oxy]-phenyl}methyl)-2-furancarboxamide]	≤ 6.5	no activity
O=C(c1ccc(Cc2cc(Cl)ccc2OCc2ccccc2)o1)n1cnc2ccccc21 [Example 77, 1-{[5-({5-Chloro-2-[(phenylmethyl)oxy]-phenyl}methyl)-2-furanyl]carbonyl}-1H-benzimidazole]	≤ 6.5	–
NC(=O)c1ccc(Cc2cc(Cl)ccc2OCc2ccccc2)o1 [Example 78, 5-({5-Chloro-2-[(phenylmethyl)oxy]-phenyl}methyl)-2-furancarboxamide]	≤ 6.5	–
O=C(Nc1c(F)cccc1F)c1ccc(Cc2cc(Cl)ccc2OCc2ccccc2)o1 [Example 79, 5-({5-Chloro-2-[(phenylmethyl)oxy]-phenyl}methyl)-N-(2,6-difluorophenyl)-2-furancarboxamide]	≤ 6.5	–
CC(C)COc1ccc(Cl)cc1Cc1ccc(C(=O)Nc2c(F)cccc2F)o1 [Example 80, 5-({5-Chloro-2-[(2-methylpropyl)oxy]-phenyl}methyl)-N-(2,6-difluorophenyl)-2-furancarboxamide]	≤ 6.5	no activity
